{
  "source": "patent US20160031909A1",
  "about": "“PORPHYRAZINE OPTICAL AND DUAL OPTICAL/ MR CONTRAST AND THERAPEUTIC AGENTS” (HOFFMAN/BARRETT, LLC, priority 2013, published 2016)",
  "assay": "Ex vivo biodistribution by ICP-MS",
  "assay_type": "in vivo, athymic nude mice",
  "details": "450 nmol, after 24 hours",
  "description": "Cu-Pz-Gd(III) was examined as a contrast agent in vivo in an orthotopic breast tumor model in athymic nude mice. MDA-MB-231 breast tumor cells expressing mCherry fluorescent protein were implanted in the mammary fat pad of mice and tumors were allowed to grow to about 5 mm in diameter at which time mice were treated with 450 nmol (50 mg/kg) Cu-Pz-Gd(III) together with saline treated control mice (FIG. 3A).\nImages were acquired at baseline, and 4, 24, and 48 hours after injection of 150 μL of imaging agent via the tail vein. One control animal was injected with saline; the remaining 9 animals were injected with 450 nmol Cu-Pz-Gd(III). Three animals were sacrificed after 4 hour, 24 hour, and 48 hour timepoints, respectively; the organs were collected for ICP-MS (described below) to measure biodistribution.\nMice were sacrificed by CO2 inhalation followed by cervical dislocation. Blood, urine (where possible), tumor, liver, kidney, spleen, heart, lungs, and samples of skin and skeletal muscle were collected for elemental analysis by ICP-MS as described below. In one additional mouse that was not treated with an imaging agent, the tumor was collected and fixed in 10% formalin for histological analysis. […]",
  "note": "The name of at least one read-out is uncertain.",
  "data": [
    {"substance": "Cu[Pz(C19H28N8O7Gd)2]. Pz=18,21-bis(2-(1H-1,2,3-triazole-4-yl) ethoxy)-tris-[1,4-dioxino[g,l,q](2R,3R)-2,3-dimethoxy-2,3-dimethyll 25H,27H-benzo[b]porphyrazine; C19H28N8O7Gd=N-methyl-2-aminoacetamide-4,7,10-tris(carboxymethyl)-1,4,7,10-tetraazacyclododecylgadolinium(III)) [Cu-Pz-Gd(III)]", "values": [
      {"measurement": "clearance from tumors (ex vivo Gd(III) content)", "result": "cleared considerably from the tumors"}
    ]}
  ]
}
